Test results taken from article PMC5834214.

Sequences of proteins named here, by UniProt entry; tags and fusion partners are left off.
UniProt P09992: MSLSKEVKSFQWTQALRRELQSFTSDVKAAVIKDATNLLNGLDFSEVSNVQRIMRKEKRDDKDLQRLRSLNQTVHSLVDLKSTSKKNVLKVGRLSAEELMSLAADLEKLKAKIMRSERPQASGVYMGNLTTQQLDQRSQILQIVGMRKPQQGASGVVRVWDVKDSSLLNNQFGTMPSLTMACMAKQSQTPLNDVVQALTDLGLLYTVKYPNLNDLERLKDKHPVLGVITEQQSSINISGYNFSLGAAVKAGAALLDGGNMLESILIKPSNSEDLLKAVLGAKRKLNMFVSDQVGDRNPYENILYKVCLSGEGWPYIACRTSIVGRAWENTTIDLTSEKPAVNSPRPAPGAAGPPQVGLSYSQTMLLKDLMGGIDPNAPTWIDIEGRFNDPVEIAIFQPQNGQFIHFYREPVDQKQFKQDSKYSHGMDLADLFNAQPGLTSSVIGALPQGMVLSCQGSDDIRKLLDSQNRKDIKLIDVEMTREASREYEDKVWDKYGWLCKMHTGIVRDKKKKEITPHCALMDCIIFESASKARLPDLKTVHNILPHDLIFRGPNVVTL

Molecular target: Strep-tagged nucleoprotein (NP) of lymphocytic choriomeningitis virus, encoded by rLCMV/Strep-NP (lymphocytic choriomeningitis virus (LCMV), clone 13) (UniProt P09992)
Assay: affinity purification with mass spectrometry

B1: Putative helicase MOV-10 (protein, UniProt Q9HCE1 1-1003)
chain: MPSKFSCRQLREAGQCFESFLVVRGLDMETDRERLRTIYNRDFKISFGTPAPGFSSMLYGMKIANLAYVTKTRVRFFRLDRWADVRFPEKRRMKLGSDISKHHKSLLAKIFYDRAEYLHGKHGVDVEVQGPHEARDGQLLIRLDLNRKEVLTLRLRNGGTQSVTLTHLFPLCRTPQFAFYNEDQELPCPLGPGECYELHVHCKTSFVGYFPATVLWELLGPGESGSEGAGTFYIARFLAAVAHSPLAAQLKPMTPFKRTRITGNPVVTNRIEEGERPDRAKGYDLELSMALGTYYPPPRLRQLLPMLLQGTSIFTAPKEIAEIKAQLETALKWRNYEVKLRLLLHLEELQMEHDIRHYDLESVPMTWDPVDQNPRLLTLEVPGVTESRPSVLRGDHLFALLSSETHQEDPITYKGFVHKVELDRVKLSFSMSLLSRFVDGLTFKVNFTFNRQPLRVQHRALELTGRWLLWPMLFPVAPRDVPLLPSDVKLKLYDRSLESNPEQLQAMRHIVTGTTRPAPYIIFGPPGTGKTVTLVEAIKQVVKHLPKAHILACAPSNSGADLLCQRLRVHLPSSIYRLLAPSRDIRMVPEDIKPCCNWDAKKGEYVFPAKKKLQEYRVLITTLITAGRLVSAQFPIDHFTHIFIDEAGHCMEPESLVAIAGLMEVKETGDPGGQLVLAGDPRQLGPVLRSPLTQKHGLGYSLLERLLTYNSLYKKGPDGYDPQFITKLLRNYRSHPTILDIPNQLYYEGELQACADVVDRERFCRWAGLPRQGFPIIFHGVMGKDEREGNSPSFFNPEEAATVTSYLKLLLAPSSKKGKARLSPRSVGVISPYRKQVEKIRYCITKLDRELRGLDDIKDLKVGSVEEFQGQERSVILISTVRSSQSFVQLDLDFNLGFLKNPKRFNVAVTRAKALLIIVGNPLLLGHDPDWKVFLEFCKENGGYTGCPFPAKLDLQQGQNLLQGLSKLSPSTSGPHSHDYLPQEREGEGGLSLQVEPEWRNEL
binding: binds

B2: T-complex protein 1 subunit beta (protein, UniProt P78371 1-535)
chain: MASLSLAPVNIFKAGADEERAETARLTSFIGAIAIGDLVKSTLGPKGMDKILLSSGRDASLMVTNDGATILKNIGVDNPAAKVLVDMSRVQDDEVGDGTTSVTVLAAELLREAESLIAKKIHPQTIIAGWREATKAAREALLSSAVDHGSDEVKFRQDLMNIAGTTLSSKLLTHHKDHFTKLAVEAVLRLKGSGNLEAIHIIKKLGGSLADSYLDEGFLLDKKIGVNQPKRIENAKILIANTGMDTDKIKIFGSRVRVDSTAKVAEIEHAEKEKMKEKVERILKHGINCFINRQLIYNYPEQLFGAAGVMAIEHADFAGVERLALVTGGEIASTFDHPELVKLGSCKLIEEVMIGEDKLIHFSGVALGEACTIVLRGATQQILDEAERSLHDALCVLAQTVKDSRTVYGGGCSEMLMAHAVTQLANRTPGKEAVAMESYAKALRMLPTIIADNAGYDSADLVAQLRAAHSEGNTTAGLDMREGTIGDMAILGITESFQVKRQVLLSAAEAAEVILRVDNIIKAAPRKRVPDHHPC
binding: binds

B3: Septin-9 (protein, UniProt Q9UHD8 1-586)
chain: MKKSYSGGTRTSSGRLRRLGDSSGPALKRSFEVEEVETPNSTPPRRVQTPLLRATVASSTQKFQDLGVKNSEPSARHVDSLSQRSPKASLRRVELSGPKAAEPVSRRTELSIDISSKQVENAGAIGPSRFGLKRAEVLGHKTPEPAPRRTEITIVKPQESAHRRMEPPASKVPEVPTAPATDAAPKRVEIQMPKPAEAPTAPSPAQTLENSEPAPVSQLQSRLEPKPQPPVAEATPRSQEATEAAPSCVGDMADTPRDAGLKQAPASRNEKAPVDFGYVGIDSILEQMRRKAMKQGFEFNIMVVGQSGLGKSTLINTLFKSKISRKSVQPTSEERIPKTIEIKSITHDIEEKGVRMKLTVIDTPGFGDHINNENCWQPIMKFINDQYEKYLQEEVNINRKKRIPDTRVHCCLYFIPATGHSLRPLDIEFMKRLSKVVNIVPVIAKADTLTLEERVHFKQRITADLLSNGIDVYPQKEFDEDSEDRLVNEKFREMIPFAVVGSDHEYQVNGKRILGRKTKWGTIEVENTTHCEFAYLRDLLIRTHMQNIKDITSSIHFEAYRVKRLNEGSSAMANGMEEKEPEAPEM
binding: binds

B4: Septin-7 (protein, UniProt Q16181 1-437)
chain: MSVSARSAAAEERSVNSSTMVAQQKNLEGYVGFANLPNQVYRKSVKRGFEFTLMVVGESGLGKSTLINSLFLTDLYSPEYPGPSHRIKKTVQVEQSKVLIKEGGVQLLLTIVDTPGFGDAVDNSNCWQPVIDYIDSKFEDYLNAESRVNRRQMPDNRVQCCLYFIAPSGHGLKPLDIEFMKRLHEKVNIIPLIAKADTLTPEECQQFKKQIMKEIQEHKIKIYEFPETDDEEENKLVKKIKDRLPLAVVGSNTIIEVNGKRVRGRQYPWGVAEVENGEHCDFTILRNMLIRTHMQDLKDVTNNVHYENYRSRKLAAVTYNGVDNNKNKGQLTKSPLAQMEEERREHVAKMKKMEMEMEQVFEMKVKEKVQKLKDSEAELQRRHEQMKKNLEAQHKELEEKRRQFEDEKANWEAQQRILEQQNSSRTLEKNKKKGKIF
binding: binds

B5: Inhibitor-ĸB kinase ε (protein, UniProt Q14164 1-716)
chain: MQSTANYLWHTDDLLGQGATASVYKARNKKSGELVAVKVFNTTSYLRPREVQVREFEVLRKLNHQNIVKLFAVEETGGSRQKVLVMEYCSSGSLLSVLESPENAFGLPEDEFLVVLRCVVAGMNHLRENGIVHRDIKPGNIMRLVGEEGQSIYKLTDFGAARELDDDEKFVSVYGTEEYLHPDMYERAVLRKPQQKAFGVTVDLWSIGVTLYHAATGSLPFIPFGGPRRNKEIMYRITTEKPAGAIAGAQRRENGPLEWSYTLPITCQLSLGLQSQLVPILANILEVEQAKCWGFDQFFAETSDILQRVVVHVFSLSQAVLHHIYIHAHNTIAIFQEAVHKQTSVAPRHQEYLFEGHLCVLEPSVSAQHIAHTTASSPLTLFSTAIPKGLAFRDPALDVPKFVPKVDLQADYNTAKGVLGAGYQALRLARALLDGQELMFRGLHWVMEVLQATCRRTLEVARTSLLYLSSSLGTERFSSVAGTPEIQELKAAAELRSRLRTLAEVLSRCSQNITETQESLSSLNRELVKSRDQVHEDRSIQQIQCCLDKMNFIYKQFKKSRMRPGLGYNEEQIHKLDKVNFSHLAKRLLQVFQEECVQKYQASLVTHGKRMRVVHETRNHLRLVGCSVAACNTEAQGVQESLSKLLEELSHQLLQDRAKGAQASPPPIAPYPSPTRKDLLLHMQELCEGMKLLASDLLDNNRIIERLNRVPAPPDV
binding: no binding

No constants are given. Whether binding was seen depends on the method and setting. In cells and extracts the contact can be indirect. Here binding means that the protein was enriched with, or labelled near, the bait; the list need not be complete. No binding means not detected with the bait.
